These are yes or no findings as the source states them, for the method shown. Binding seen in cells or lysates may run through a third protein. Some binding calls cover weakened binding; strength is not graded here.
Target: GST-FliI (Salmonella enterica) (UniProt P26465)
Test: pull-down; GST affinity chromatography: lysates of S. enterica SJW1368 expressing GST or GST fusions mixed with lysate of E. coli BL21 (DE3) Star overexpressing His-FlgD; Glutathione Sepharose 4B; wash with PBS; elution with 10 mM reduced glutathione; CBB and anti-FlgD immunoblot

The chains behind the UniProt entries cited, without tags or fusion partners.
UniProt P26465: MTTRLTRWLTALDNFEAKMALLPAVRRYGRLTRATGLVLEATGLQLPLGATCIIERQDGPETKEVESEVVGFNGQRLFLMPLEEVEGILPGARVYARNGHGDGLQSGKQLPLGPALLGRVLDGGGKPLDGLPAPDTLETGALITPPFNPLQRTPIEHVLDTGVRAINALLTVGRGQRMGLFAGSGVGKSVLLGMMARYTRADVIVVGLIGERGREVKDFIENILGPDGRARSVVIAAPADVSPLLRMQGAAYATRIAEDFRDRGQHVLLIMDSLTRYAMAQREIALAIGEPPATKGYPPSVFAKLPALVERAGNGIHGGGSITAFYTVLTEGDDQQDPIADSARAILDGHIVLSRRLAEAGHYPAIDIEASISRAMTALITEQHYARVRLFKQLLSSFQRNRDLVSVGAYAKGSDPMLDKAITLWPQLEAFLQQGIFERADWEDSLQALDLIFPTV
UniProt P0A1I9: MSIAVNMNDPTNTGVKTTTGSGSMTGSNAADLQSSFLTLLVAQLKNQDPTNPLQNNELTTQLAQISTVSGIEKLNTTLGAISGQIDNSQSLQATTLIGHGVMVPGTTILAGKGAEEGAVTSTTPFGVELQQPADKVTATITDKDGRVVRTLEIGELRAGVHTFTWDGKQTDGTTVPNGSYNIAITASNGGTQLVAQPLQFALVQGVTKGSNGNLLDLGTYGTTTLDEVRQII

## His-FlgD (from UniProt P0A1I9 1-232)
  binding: binds
